# Measurements as given in PubChem BioAssay AID1347075 (National Center for Advancing Translational Sciences (NCATS), 2019).
# The whole screen tested about 400,000 compounds, of which about 5,500 (1.4%) were called active. The inconclusive results got no clear call from the source; some entries with a clear call stand among them for comparison. The call rests on the fitted dose curve; in most records, active means well fitted cell-killing curve with a large enough effect; inconclusive means small, poorly fitted or top-dose-only effect, or effect the other way; inactive means flat fitted curve, though single readings scatter. Potencies beside an inconclusive call are fits to weak or partial responses and may not hold up.
# Assay: qHTS assay for MDR1-selective chemotherapeutics: Primary screen using the parental adenocarcinoma cell KB-3-1; further: nearly all actives have a fitted effect of over 60% in size
# Conditions: KB-3-1 viability, CellTiter-Glo ATP luminescence, 72 h; activity change, negative = cytotoxic: at 46.1 µM (top of the series)
# In short: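 Cells are dispensed, compounds pinned in, plates held at 37 °C for 72 h, then CellTiter-Glo is added and luminescence read after 10 minutes. Cell line: parental KB-3-1 in phenol-red-free DMEM, 10% FBS.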
# On the % scale 0 is the no-effect control and ±100 the full control effect; potency means the concentration at half of the fitted maximal effect.
Structure (SMILES),Potency,"activity change, negative = cytotoxic"
Cc1ccccc1NC(=O)CSc1nc2ccc(NC(=O)c3cccs3)cc2s1,"inconclusive: 29.1 µM [cytotoxic, single point]",–
O=C(CSc1nc2c(sc3ccccc32)c(=O)n1CCCN1CCCC1)NCc1ccccc1,–,inactive: -7.03%
CCN(CC)P(=O)(Nc1ccc(C)cc1Br)c1ccc(N(C)C)cc1NC(=O)c1ccco1 (stereo not given),"inconclusive: 29.1 µM [cytotoxic, single point]",–
COc1ccc(Br)cc1/C=N/NC(=O)CNC(=O)/C=C/c1ccccc1,–,inactive: -25.8%
Cc1cccn2c(=O)c(/C=C(\C#N)C(=O)NCc3ccco3)c(N3CCC(C(N)=O)CC3)nc12,"inconclusive: 29.1 µM [cytotoxic, single point]",–
CCOCCCNC(=O)C1CCN(c2cc(C)nc3c(-c4ccc(OC)c(OC)c4)c(C)nn23)CC1,–,inactive: 1.22%
CCCn1c(=O)sc2cc(NC(=O)c3ccc(OC)c(Br)c3)ccc21,active: 23.1 µM,–
CCOc1ccc(NC(=O)c2c(NC(=O)CNCCN3CCOCC3)sc3c2CCC3)cc1,–,inactive: -6.06%
COc1ccc(OC)c(-c2nnc3n2N=C(c2ccc(OC)c(OC4CCCC4)c2)CS3)c1,active: 0.92 µM,–
Cc1cc(C)c(S(=O)(=O)N2CCN(C(=O)CCOc3ccccc3C)CC2)c(C)c1,"inconclusive: 16.4 µM [cytotoxic, partial curve, poor fit]",–
O=C(Nc1ccc(Nc2ccccc2)cc1)C1CC1,–,inactive: 2.54%
Cc1cc(NCCN2CCOCC2)n2nc(C)c(-c3ccc(Cl)cc3)c2n1,"inconclusive: 29.1 µM [cytotoxic, single point]",–
C/C=C\C(=O)Nc1cccc(C2=NOC3(C2)C[C@@H](C(N)=O)N(C(=O)CC(c2ccccc2)c2ccccc2)C3)c1 (stereo not given in full),–,inactive: 4.04%
Cc1ccc(-c2nc(C#N)c(N3CCC(C)CC3)o2)cc1,–,inactive: 1.53%
O=c1c([N+](=O)[O-])cccn1Cc1ccccc1Cl,"inconclusive: 29.1 µM [cytotoxic, single point]",–
Cc1cccc(/C=N/NC(=O)Cc2ccc(Cl)cc2)c1O,"inconclusive: 29.1 µM [cytotoxic, single point]",–
Cc1cc(N2CCN(c3nc4ccccc4s3)CC2)n2ncnc2n1,active: 2.59 µM,–
O=C(Nc1ccccc1)C(=O)Nc1ccc2c(c1)N(C(=O)C1CC1)CCC2,active: 23.1 µM,–
Cc1ccc(-n2cc(C(=O)Oc3cccc(C)c3)c3ccccc3c2=O)cc1,–,inactive: 2.2%
COc1cccc(/C=C2\SC(=S)N(CCC(=O)N3CCCCC3CCO)C2=O)c1 (stereo not given),"inconclusive: 20.6 µM [cytotoxic, single point]",–
Cc1cccc(NC(=O)c2ccc3nc(C(C)C)oc3c2)c1C,"inconclusive: 29.1 µM [cytotoxic, single point]",–
COc1ccc(NC(=O)c2cccc(-n3c(C)ccc3C)c2)c(OC)c1,"inconclusive: 29.1 µM [cytotoxic, single point]",–
COc1ccccc1CNC(=O)CC(C)C,–,inactive: 12%
Cc1cc(N2CCOCC2)nc(N2CCOCC2)c1C#N,"inconclusive: 20.6 µM [cytotoxic, partial curve]",–

Structure (SMILES),Potency,"activity change, negative = cytotoxic"
CC(OC(=O)Cn1[nH]c(=O)c2ccccc2c1=O)C(=O)c1ccccc1 (stereo not given),"inconclusive: 0.411 µM [rising, full curve]",–
Cc1ccc(S(=O)(=O)c2nc(S(=O)(=O)c3ccc(C)cc3)c(N3CCN(CCO)CC3)s2)cc1,–,inactive: -5.44%
Cc1ccc([C@H]2N[C@]3(CCCN(Cc4ccccc4)C3=O)[C@H]3C(=O)N(Cc4ccccc4)C(=O)[C@@H]23)cc1,"inconclusive: 2.91 µM [cytotoxic, partial curve, poor fit]",–
Cc1ccc(NC(=O)C2CCCN(S(=O)(=O)c3ccc4c(c3)oc(=O)n4C)C2)cc1Cl (stereo not given),–,inactive: -0.387%
COc1ccc(CCNC(=O)c2ccc3c(c2)CCN3S(=O)(=O)c2ccc(C)cc2)cc1,–,inactive: -2.7%
CC(C)(C)OC(=O)NC1CONC1=O (stereo not given),"inconclusive: 2.91 µM [cytotoxic, partial curve, poor fit]",–
Cn1c2ccccc2c(=O)c2ccc(Cl)cc21,"inconclusive: 29.1 µM [cytotoxic, single point]",–
CCOC(=O)c1cnc(SCc2ccc(C(C)(C)C)cc2)nc1N,active: 23.1 µM,–
CN(c1ccccc1)S(=O)(=O)c1cccc(NC(=O)C2CC(=O)N(Cc3ccccc3)C2)c1 (stereo not given),"inconclusive: 23.1 µM [cytotoxic, single point]",–
COc1ccc(-c2nonc2NC(=O)c2oc3ccc(F)cc3c2C)cc1OC,"inconclusive: 29.1 µM [cytotoxic, single point]",–
O=C1NC[C@H](Cc2ccccc2)N(C[C@@H]2CCCN2C[C@H](Cc2ccccc2)N2C[C@H](Cc3ccccc3)N(CCc3ccccc3)C(=O)C2=O)C1=O,"inconclusive: 29.1 µM [cytotoxic, single point]",–
CN1CCN(c2ccc(Cl)cc2NC(=O)C2COc3ccccc3O2)CC1 (stereo not given),"inconclusive: 29.1 µM [cytotoxic, single point]",–
Cn1c(NCc2ccc3occc3c2)nc2cc(-c3cccc(C(F)(F)F)c3)sc2c1=O,"inconclusive: 29.1 µM [cytotoxic, single point]",–
CCN1CCN(CCNC(=O)c2ccc3nc(-c4cccc(C)c4)c(-c4cccc(C)c4)nc3c2)CC1,"inconclusive: 18.4 µM [cytotoxic, single point]",–
COc1ccc2oc(=O)c(C(=O)Nc3ccccc3O)cc2c1,–,inactive: 1.24%
COc1ccc(C2C(C#N)=C(SC)NC3=C2C(=O)CC(C)(C)C3)cc1 (stereo not given),"inconclusive: 29.1 µM [cytotoxic, single point]",–
CCCOC(=O)c1c(NC(=O)C(C)Sc2nc(-c3ccccc3)cc(C(F)(F)F)n2)sc(C(=O)N(C)C)c1C (stereo not given),"inconclusive: 29.1 µM [cytotoxic, single point]",–
COc1ccc(N2CCN(CCCNC(=O)c3ccc(CS(=O)(=O)c4ccc(OC)cc4)o3)CC2)cc1,–,inactive: 0%
c1cc2c3c(c1)CCCN3CCC2,–,inactive: 4.39%
NNC(=O)c1oc2nc(-c3ccc(Cl)cc3)cc(-c3ccccc3)c2c1N,"inconclusive: 16.4 µM [cytotoxic, single point]",–
CCC(C)[C@H](NS(=O)(=O)c1ccc(C)cc1)C(=O)N1CCC(C(=O)N[C@@H](Cc2ccccc2)C(=O)O)CC1 (stereo not given in full),–,inactive: 5.82%
O=C(Nc1ccc(F)c(Cl)c1)C1CCCCC1,–,inactive: 0%
CCCCSC1(SCCCC)N=C(N)C2(C#N)C(c3ccccc3)NC(C)=C(C)C12C#N (stereo not given),–,inactive: 30.7%
COC(=O)[C@@H]1Cc2c([nH]c3ccccc23)C(C)N1C(=O)c1ccccc1 (stereo not given in full),"inconclusive: 20.6 µM [cytotoxic, single point]",–

# Copied from the list.
# Potency with `CN(c1ccccc1)S(=O)(=O)c1cccc(NC(=O)C2CC(=O)N(Cc3ccccc3)C2)c1` (stereo not given) reads inconclusive: 23.1 µM [cytotoxic, single point]
# activity change, negative = cytotoxic with `COc1ccc(CCNC(=O)c2ccc3c(c2)CCN3S(=O)(=O)c2ccc(C)cc2)cc1` reads inactive: -2.7%
# Potency with `Cc1cc(NCCN2CCOCC2)n2nc(C)c(-c3ccc(Cl)cc3)c2n1` reads inconclusive: 29.1 µM [cytotoxic, single point]

# Remaining list, next part:

Structure (SMILES),Potency,"activity change, negative = cytotoxic"
C[C@@H]1CN([C@H](C)CO)S(=O)(=O)c2ccc(Br)cc2O[C@H]1CN(C)C(=O)Nc1cccc(F)c1,–,inactive: 19.7%
CCOC(=O)CC(=O)CSc1nc2c(c(C)c1C#N)CCC2,–,inactive: 2.01%
C/C(=N\NC(=O)c1cc(-c2cccc([N+](=O)[O-])c2)n[nH]1)c1ccccc1O,"inconclusive: 14.6 µM [cytotoxic, partial curve]",–
COc1ccc(-c2cc(C(=O)OC(C)C(=O)Nc3c(C)n(C)n(-c4ccccc4)c3=O)c3ccccc3n2)cc1 (stereo not given),–,inactive: 0%
Cc1cccc(Nc2nnc(SCC(=O)NC3CCCc4ccccc43)s2)c1C (stereo not given),"inconclusive: 0.0082 µM [cytotoxic, full curve, poor fit]",–
Cc1ccc([N+](=O)[O-])c(OCCN2CCC(Cc3ccccc3)CC2)c1,"inconclusive: 25.9 µM [cytotoxic, single point]",–
COCCNC(=O)C1(C)CCN(Cc2cccc(Oc3ccccc3)c2)C1 (stereo not given),–,inactive: 0%
COC1c2ccccc2C(=O)N1Cc1ccc(F)cc1 (stereo not given),–,inactive: 0.671%
COC(=O)c1cc(=O)n(-c2ccccc2)c(=Nc2ccccc2)s1,"inconclusive: 14.6 µM [cytotoxic, partial curve, poor fit]",–
CC1CCC(=NNC(=O)c2ccccc2-n2cccc2)CC1 (stereo not given),"inconclusive: 32.6 µM [cytotoxic, single point]",–
COc1ccccc1/C=C/CN1CCC(CO)(Cc2ccccc2)CC1,–,inconclusive: -33.2% [cytotoxic]
CC(C)C[C@@H](CN1CCC[C@@H]1CN1C(=S)NC[C@@H]1Cc1ccc(O)cc1)N1C[C@H](Cc2ccccc2)N(CCc2ccccc2)C1=S,"inconclusive: 29.1 µM [cytotoxic, single point]",–
Cc1ccc(C)c(NC(=S)NCc2ccc3[nH]c4c(c3c2)CCCC4)c1,"inconclusive: 32.6 µM [cytotoxic, single point]",–
CCn1cc(CN2CCCC(C(=O)Nc3cccc(-c4cc5ccccc5[nH]4)c3)C2)cn1 (stereo not given),–,inactive: 11.7%
Cc1cc(C)cc(-n2c(C)cc(C(=S)N3CCOCC3)c2C)c1,–,inactive: -12.3%
COc1cccc(CNC(=O)COc2cc(=O)n(C)c3ccccc23)c1,"inconclusive: 29.1 µM [rising, single point]",–
COCCNC(=S)N1CCC2CC1c1c(Cl)cccc12 (stereo not given),–,inactive: 6.57%
Clc1ccc(OCc2nn3c(-c4ccncc4)nnc3s2)cc1,–,inactive: 6.23%
COc1ccc(N(CC(=O)NCc2ccco2)S(=O)(=O)c2ccc(C)cc2)cc1OC,"inconclusive: 23.1 µM [cytotoxic, single point]",–
Cc1ccc(N2CCN(S(=O)(=O)c3cccc4ccccc34)CC2)cc1Cl,–,inactive: -1.4%
COC(=O)/C(C#N)=C/c1c(N2CCN(c3cccc(Cl)c3)CC2)nc2c(C)cccn2c1=O,"inconclusive: 25.9 µM [cytotoxic, partial curve, poor fit]",–
N#Cc1c(-c2ccc(Cl)cc2)c(-c2ccc(Cl)cc2)nn(CCOC(=O)CCC(=O)O)c1=O,active: 2.31 µM,–
